{
  "sequences": {"note": "Protein sequences, listed by entry. Tags and fused reporters are not part of them. Lines headed by an entry give the natural chain unless they say otherwise; changes in a name come on top.", "UniProt Q14457": "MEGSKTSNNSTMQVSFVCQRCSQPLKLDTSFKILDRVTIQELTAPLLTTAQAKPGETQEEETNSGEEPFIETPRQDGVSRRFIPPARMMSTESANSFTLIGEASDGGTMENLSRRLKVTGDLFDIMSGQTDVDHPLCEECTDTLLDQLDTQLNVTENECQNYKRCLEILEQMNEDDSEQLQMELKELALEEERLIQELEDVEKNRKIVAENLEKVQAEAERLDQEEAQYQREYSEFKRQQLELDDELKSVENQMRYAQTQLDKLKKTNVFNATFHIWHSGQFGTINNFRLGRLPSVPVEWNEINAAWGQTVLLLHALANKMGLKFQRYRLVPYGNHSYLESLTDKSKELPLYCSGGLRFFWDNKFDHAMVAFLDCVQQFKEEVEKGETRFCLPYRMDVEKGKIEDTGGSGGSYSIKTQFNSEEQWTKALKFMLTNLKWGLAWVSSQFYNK", "UniProt P10415": "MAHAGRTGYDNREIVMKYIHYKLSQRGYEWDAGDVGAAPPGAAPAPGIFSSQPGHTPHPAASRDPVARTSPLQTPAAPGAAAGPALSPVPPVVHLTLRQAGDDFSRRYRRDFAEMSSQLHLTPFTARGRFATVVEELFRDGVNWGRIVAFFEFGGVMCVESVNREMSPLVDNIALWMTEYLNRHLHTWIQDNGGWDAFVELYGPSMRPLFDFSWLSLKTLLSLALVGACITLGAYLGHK"},
  "source": "paper PMC5660092",
  "key": {"Flag-Beclin 1-WT (human)": {"target": "Flag-Beclin 1-WT (human) (UniProt Q14457)", "assay": "co-IP; Flag-Beclin 1-WT and its mutants overexpressed in HEK293T cells; ionomycin or KN-93 treatment (Supplementary Fig. 2a, b)"}, "[1]": {"target": "Flag-Beclin 1-S90A (human) (UniProt Q14457)", "assay": "co-IP; Flag-Beclin 1-WT and its mutants overexpressed in HEK293T cells; ionomycin or KN-93 treatment (Supplementary Fig. 2a, b)"}, "[2]": {"target": "Beclin 1 (endogenous) (human (endogenous in HEK293T and SK-N-SH)) (UniProt Q14457)", "assay": "co-IP; endogenous proteins; SK-N-SH cells treated with 6 uM ionomycin or 100 nM EB1089, precipitated with anti-Beclin 1 or normal mouse IgG, western blot"}, "[3]": {"target": "p62 (endogenous) (human (endogenous in HEK293T)) (UniProt Q13501)", "assay": "co-IP; endogenous proteins; HEK293T cells treated with 6 uM ionomycin or 100 nM EB1089 for 24 h and 100 nM Baf A1 for 6 h, precipitated with anti-p62 or normal mouse IgG, western blot"}},
  "note": "No constants are given. Whether binding was seen depends on the method and setting. In cells and extracts the contact can be indirect. Some entries that bind do so weakly or less than the wild type.",
  "data": [
    {"molecule": "Bcl-2 (HEK293T lysate, Supplementary Fig. 2a, b) (from UniProt P10415 1-239)", "values": [
      {"measurement": "binding", "setting": "Flag-Beclin 1-WT (human)", "value": "binds"},
      {"measurement": "binding", "setting": "[1]", "value": "binds"}
    ]},
    {"molecule": "Bcl-2 (endogenous, SK-N-SH) (from UniProt P10415 1-239)", "values": [
      {"measurement": "binding", "setting": "[2]", "value": "binds"}
    ]},
    {"molecule": "Id-1 (endogenous) (protein, UniProt P41134 1-155) MKVASGSTATAAAGPSCALKAGKTASGAGEVVRCLSEQSVAISRCAGGAGARLPALLDEQQVNVLLYDMNGCYSRLKELVPTLPQNRKVSKVEILQHVIDYIRDLQLELNSESEVGTPGGRGLPVRAPLSTLNGEISALTAEAACVPADDRILCR", "values": [
      {"measurement": "binding", "setting": "[3]", "value": "binds"}
    ]},
    {"molecule": "Id-2 (endogenous) (protein, UniProt Q02363 1-134) MKAFSPVRSVRKNSLSDHSLGISRSKTPVDDPMSLLYNMNDCYSKLKELVPSIPQNKKVSKMEILQHVIDYILDLQIALDSHPTIVSLHHQRPGQNQASRTPLTTLNTDISILSLQASEFPSELMSNDSKALCG", "values": [
      {"measurement": "binding", "setting": "[3]", "value": "binds"}
    ]}
  ]
}
